The other results are listed elsewhere or left out. At the low end of the ranking the order means little.

This assay has as its target T1, PUM1 PUF domain R3-THE R4-TFR C935T + R936H + Q939E + N971T + H972F + Q975R (UniProt Q14671).
T1 sequence: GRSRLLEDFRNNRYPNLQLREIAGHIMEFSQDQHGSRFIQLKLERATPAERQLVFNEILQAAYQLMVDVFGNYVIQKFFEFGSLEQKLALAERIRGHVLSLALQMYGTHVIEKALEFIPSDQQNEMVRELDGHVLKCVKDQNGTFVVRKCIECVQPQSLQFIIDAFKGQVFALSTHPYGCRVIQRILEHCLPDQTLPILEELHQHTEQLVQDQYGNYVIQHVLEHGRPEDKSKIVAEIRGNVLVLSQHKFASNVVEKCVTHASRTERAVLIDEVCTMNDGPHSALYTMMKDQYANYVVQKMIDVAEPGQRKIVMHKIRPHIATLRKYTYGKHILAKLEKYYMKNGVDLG
Particulars: yeast three-hybrid, YBZ-1, SC-Leu-His + 0.5 mM 3-AT, 4 days.
On to “GGCUAGAACUAGUGGAUCCCCCGGCGCCCGGCGGCUCGAGCCCGGGUAAGGGAACAUCGUCUGCAUGCCGCCGGGCGCCAUGCCUGCAGGUCGACUCUAGAAAACAUG”, for which the binding signal (log2 enrichment (interaction score)) was < -6.06. The value for “GGCUAGAACUAGUGGAUCCCCCGGCGCCCGGCGGCUCGAGCCCGGGUAAGUGGCAGUGGUCUGCAUGCCGCCGGGCGCCAUGCCUGCAGGUCGACUCUAGAAAACAUG” was < -6.41; that for “GGCUAGAACUAGUGGAUCCCCCGGCGCCCGGCGGCUCGAGCCCGGGUAAGAGGGAGAAGUCUGCAUGCCGCCGGGCGCCAUGCCUGCAGGUCGACUCUAGAAAACAUG” was < -6.73; that for “GGCUAGAACUAGUGGAUCCCCCGGCGCCCGGCGGCUCGAGCCCGGGUAAGUUUAAGGCGUCUGCAUGCCGCCGGGCGCCAUGCCUGCAGGUCGACUCUAGAAAACAUG” was < -5.77.

On to “GGCUAGAACUAGUGGAUCCCCCGGCGCCCGGCGGCUCGAGCCCGGGUAAGGAUAAGUCGUCUGCAUGCCGCCGGGCGCCAUGCCUGCAGGUCGACUCUAGAAAACAUG”, for which the binding signal (log2 enrichment (interaction score)) is -5.98. On to “GGCUAGAACUAGUGGAUCCCCCGGCGCCCGGCGGCUCGAGCCCGGGUAAGGAUAAAUCGUCUGCAUGCCGCCGGGCGCCAUGCCUGCAGGUCGACUCUAGAAAACAUG”, for which the binding signal (log2 enrichment (interaction score)) was < -6.89.

On to “GGCUAGAACUAGUGGAUCCCCCGGCGCCCGGCGGCUCGAGCCCGGGUAAGGUUACAACGUCUGCAUGCCGCCGGGCGCCAUGCCUGCAGGUCGACUCUAGAAAACAUG”, for which the binding signal (log2 enrichment (interaction score)) is -7.21.

With “GGCUAGAACUAGUGGAUCCCCCGGCGCCCGGCGGCUCGAGCCCGGGUAAGUUAACCAAGUCUGCAUGCCGCCGGGCGCCAUGCCUGCAGGUCGACUCUAGAAAACAUG”, the binding signal (log2 enrichment (interaction score)) was -6.39. The result for “GGCUAGAACUAGUGGAUCCCCCGGCGCCCGGCGGCUCGAGCCCGGGUAAGAGUGGAAAGUCUGCAUGCCGCCGGGCGCCAUGCCUGCAGGUCGACUCUAGAAAACAUG” reads < -7.34.

The values are drawn from paper PMC8384837.
